In the supplement of paper PMC8728848:
The other results are listed elsewhere or left out.

Assays:
Assay in all cases: glycan array binding signal (z-score within array); higher = stronger binding
Conditions in all cases: glycan notation: IUPAC condensed, linker removed
[1] = target: Gal(b1-4)GlcNAc(b1-2)Man(a1-3)[Gal(b1-4)GlcNAc(b1-2)Man(a1-6)]Man(b1-4)GlcNAc(b1-4)[Fuc(a1-6)]GlcNAc
Method in brief: (§1)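 The binding signal is a Z-score computed within each array and averaged over linkers. Arrays of the same protein sequence at different concentrations or buffers were also averaged together. Data originate from 3228 arrays in the Consortium for Functional Glycomics database, kept only where the protein sequence was available.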

[2] = target: Gal(b1-4)GlcNAc(b1-2)Man(a1-3)[Gal(b1-4)GlcNAc(b1-2)Man(a1-6)][Gal(b1-4)GlcNAc(b1-4)]Man(b1-4)GlcNAc(b1-4)[Fuc(a1-6)]GlcNAc
Method in brief: as §1

[3] = target: Gal(b1-4)GlcNAc(b1-2)Man(a1-3)[Gal(b1-4)GlcNAc(b1-2)Man(a1-6)][GlcNAc(b1-4)]Man(b1-4)GlcNAc(b1-4)[Fuc(a1-6)]GlcNAc
Method in brief: as §1

[4] = target: Gal(b1-4)GlcNAc(b1-2)Man(a1-3)[GlcNAc(b1-2)Man(a1-6)]Man(b1-4)GlcNAc(b1-4)GlcNAc
Method in brief: as §1

[5] = target: Gal(b1-4)GlcNAc(b1-2)Man(a1-3)[GlcNAc(b1-4)][Gal(b1-4)GlcNAc(b1-2)Man(a1-6)]Man(b1-4)GlcNAc(b1-4)GlcNAc
Method in brief: as §1

[6] = target: Gal(b1-4)GlcNAc(b1-2)Man(a1-3)[Man(a1-6)]Man(b1-4)GlcNAc(b1-4)GlcNAc
Method in brief: as §1

[7] = target: Gal(b1-4)GlcNAc(b1-2)Man(a1-6)Man(b1-4)GlcNAc(b1-4)GlcNAc
Method in brief: as §1

[8] = target: Gal(b1-4)GlcNAc(b1-2)Man(a1-6)[GlcNAc(b1-2)Man(a1-3)]Man(b1-4)GlcNAc(b1-4)GlcNAc
Method in brief: as §1

[9] = target: Gal(b1-4)GlcNAc(b1-2)Man(a1-6)[Man(a1-3)]Man(b1-4)GlcNAc(b1-4)GlcNAc
Method in brief: as §1

[10] = target: Gal(b1-4)GlcNAc(b1-2)[Gal(b1-4)GlcNAc(b1-4)]Man(a1-3)[Gal(b1-4)GlcNAc(b1-2)Man(a1-6)]Man(b1-4)GlcNAc(b1-4)GlcNAc
Method in brief: as §1

[11] = target: Gal(b1-4)GlcNAc(b1-2)[Gal(b1-4)GlcNAc(b1-4)]Man(a1-3)[Gal(b1-4)GlcNAc(b1-2)[Gal(b1-4)GlcNAc(b1-6)]Man(a1-6)]Man(b1-4)GlcNAc(b1-4)GlcNAc
Method in brief: as §1

[12] = target: Gal(b1-4)GlcNAc(b1-2)[Gal(b1-4)GlcNAc(b1-4)]Man(a1-3)[GlcNAc(b1-4)][Gal(b1-4)GlcNAc(b1-2)Man(a1-6)]Man(b1-4)GlcNAc(b1-4)GlcNAc
Method in brief: as §1

[13] = target: Gal(b1-4)GlcNAc(b1-2)[Gal(b1-4)GlcNAc(b1-4)]Man(a1-3)[GlcNAc(b1-4)][Gal(b1-4)GlcNAc(b1-2)[Gal(b1-4)GlcNAc(b1-6)]Man(a1-6)]Man(b1-4)GlcNAc(b1-4)GlcNAc
Method in brief: as §1

[14] = target: Gal(b1-4)GlcNAc(b1-2)[Gal(b1-4)GlcNAc(b1-6)]Man(a1-6)[Gal(b1-4)GlcNAc(b1-2)Man(a1-3)]Man(b1-4)GlcNAc(b1-4)GlcNAc
Method in brief: as §1

[15] = target: Gal(b1-4)GlcNAc(b1-2)[Gal(b1-4)GlcNAc(b1-6)]Man(a1-6)[Gal(b1-4)GlcNAc(b1-2)Man(a1-3)]Man(b1-4)GlcNAc(b1-4)[Fuc(a1-6)]GlcNAc
Method in brief: as §1

[16] = target: Gal(b1-4)GlcNAc(b1-2)[Gal(b1-4)GlcNAc(b1-6)]Man(a1-6)[GlcNAc(b1-4)][Gal(b1-4)GlcNAc(b1-2)Man(a1-3)]Man(b1-4)GlcNAc(b1-4)GlcNAc
Method in brief: as §1

[17] = target: Gal(b1-4)GlcNAc(b1-2)[Gal(b1-4)GlcNAc(b1-6)]Man(a1-6)[GlcNAc(b1-4)][Gal(b1-4)GlcNAc(b1-2)[Gal(b1-4)GlcNAc(b1-4)]Man(a1-3)]Man(b1-4)GlcNAc(b1-4)[Fuc(a1-6)]GlcNAc
Method in brief: as §1

[18] = target: Gal(b1-4)GlcNAc(b1-3)Gal(b1-3)GalNAc
Method in brief: as §1

[19] = target: Gal(b1-4)GlcNAc(b1-3)Gal(b1-3)GlcNAc
Method in brief: as §1

B1: Epa3to2 (Candida glabrata) (protein)
chain: MGSSHHHHHHSSGLVPRGSHMKRELSSQNPFGYPIGCSPQDVAIIPGLTMELYSYPIVSGTPPNCYDASYVDPEYPRTGYLKRKMVGKSTGVTGNLNYKYSVEKACMVKYGNLPAGYNYNEPLTVSNFTMILYGYFKAQTTGLHTFFVNADDLLYINFGAGNAFDCCKREDSKTKLGEYVAYDIWHVDSSKNKVSLFLEKDLYYPIRMFFNNRDNNSSLDLSFSVNGATDQISDFSGYLYSVPDQPDTCPAHIGYDTTCR
glycan array binding signal (z-score) [1]: 1.25 | glycan array binding signal (z-score) [2]: -0.737 | glycan array binding signal (z-score) [3]: -1.09 | glycan array binding signal (z-score) [4]: -0.998 | glycan array binding signal (z-score) [5]: -0.609 | glycan array binding signal (z-score) [6]: 0.07 | glycan array binding signal (z-score) [7]: 0.844 | glycan array binding signal (z-score) [8]: 0.388 | glycan array binding signal (z-score) [9]: 0.476 | glycan array binding signal (z-score) [10]: -1.88 | glycan array binding signal (z-score) [11]: -0.305 | glycan array binding signal (z-score) [12]: -1.1 | glycan array binding signal (z-score) [13]: 0.856 | glycan array binding signal (z-score) [14]: -0.299 | glycan array binding signal (z-score) [15]: 0.238 | glycan array binding signal (z-score) [16]: -0.786 | glycan array binding signal (z-score) [17]: -0.091 | glycan array binding signal (z-score) [18]: 0.841 | glycan array binding signal (z-score) [19]: -0.865
